Results are given in words; binding and its absence hold for the method and conditions named. In cells and extracts the contact can be indirect. Some entries that bind do so weakly or less than the wild type. Where a sequence is shown, tags or fusion partners need not be part of it.
Target: T1, GST fused with the ARF6-binding domain (LZII, leucine zipper II domain) of human JIP3 (aa 371-507) (human) (UniProt Q9UPT6)
T1 sequence: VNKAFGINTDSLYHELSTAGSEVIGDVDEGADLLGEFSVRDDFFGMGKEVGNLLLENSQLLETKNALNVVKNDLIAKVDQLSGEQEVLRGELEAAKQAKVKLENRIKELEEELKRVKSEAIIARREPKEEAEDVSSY
Test: pull-down; GST-LZII (37 ug/reaction) incubated with cleared MDA-MB-231 cell lysates for 15 min at 4°C with 0.5% BSA, then glutathione-Sepharose beads for 1 h at 4°C; lysis buffer 50 mM Tris pH 7.4, 137 mM NaCl, 10 mM MgCl2, 10% glycerol, 1% Triton-X100; bound proteins immunoblotted with anti-ARF6 monoclonal antibody; only the target purified

By UniProt entry, the sequences of proteins in these tests, tags left out. Where a name states a change or a piece, a line headed by the entry shows the natural chain unless it says otherwise.
UniProt P62330: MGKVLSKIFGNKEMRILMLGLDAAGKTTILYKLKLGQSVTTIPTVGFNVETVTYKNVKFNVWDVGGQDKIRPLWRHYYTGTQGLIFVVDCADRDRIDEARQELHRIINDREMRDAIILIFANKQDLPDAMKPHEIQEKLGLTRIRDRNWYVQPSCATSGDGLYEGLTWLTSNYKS

Substance: ARF6T27N (from UniProt P62330 1-175)
- binding: binds weakly

— publication PMC4370635
